For assay [1], the target named is human Fc (Sino Biological Inc.) (human). Put plainly: ELISA, antigen coated at 1 ug/ml, hybridoma culture supernatant.
For assay [2] the target is unchanged. Put plainly: condition: culture supernatant, concentration not given; ELISA, antigen coated at 1 µg/ml, hybridoma culture supernatant, ALP anti-rat IgG, O.D.492.

Results are given in words; binding and its absence hold for the method and conditions named.

B1: rat anti-ALK2 monoclonal antibody A2-11E (antibody, V domains shown)
VH: EVQLVETGGGLVQPGRSLKLSCVASGFTFSNYYMYWIRQAPGKGLEWISSINTDGGSTYYPDSVKGRFAISRDNAENTVYLQMNSLRSEDTATYYCAKSTPNIPLAYWGQGTLVTVSS
VL: DIQMTQSPSLLSASVGDRVTLSCKASQNIYKYLNWFQQKLGEAPKLLIYYSNSLQTGIPSRFSGSGSGTDFTLTISSLQPEDVAIYFCFQYSSGPTFGPGTKLELKR
As for B1, the binding entry in assay [1] and in assay [2] was “no binding” in each case.

B2: rat anti-ALK2 monoclonal antibody A2-25C (antibody, V domains shown)
VH: EVQLVESGGGLVQPGGSLKLSCAASGFTFSYYAMSWVCQAPTKGLEWVASISRGGDNTYYRDTVKGRFTTSRDNAKNTLYLQMDSLRSEDTATYYCARLNYNNYFDYWGQGVMVTVSS
VL: DIQMTQSPASLSASLEEIVTITCQASQDIGNWLSWYQQKPGKSPQLLIYGATSLADGVPSRFSGSRSGTQYSLKISRLRVEDIGIYYCLQAYSAPFTFGSGTKLEIKR
Consider B2, for which the binding entry in assay [1] and in assay [2] was “no binding” throughout.

B3: rat anti-ALK2 monoclonal antibody A2-15A (antibody, V domains shown)
VH: EVQLVESGGGLVQPGRSLKLSCAASGFTFSHYYMAWVRQAPTKGLEWVASITNSGGSINYRDSVKGRFTISRDNAKSTLYLQMDSLRSEDTATYYCTREGGENYGGYPPFAYWGQGTLVTVSS
VL: DIVLTQSPALAVSLGQRATISCRANQGVSLSRYNLMHWYQQKPGQKPKLLIYRSSNLASGIPARFSGSGSGTDFTLTINPVQADDIATYYCQQSRESPFTFGAGTKLELKR
Consider B3, for which the binding entry in assay [1] and in assay [2] was “no binding” throughout.

B4: rat anti-ALK2 monoclonal antibody A2-27D (antibody, V domains shown)
VH: EVQLVESGGGLVQPGRSLKLSCLASGSTFSNYGMKWIRQAPGKGLEWVASISRSSTYIYYADTVKGRFTISRDNARNTLYLQMTSLRSEDTALYYCAAAISTPFYWYFDFWGPGTVVTVSS
VL: EIVLTQSPTTMAASPGEKVTLNCLASSSVSYMTWYQQKSGASPKLWIYGTSNLASGVPNRFSGSGSGTSYSLAISSMEAEDVATYYCLHLTSYPPYTFGAGTKLELKR
Take B4: the binding entry in assay [1] and in assay [2] was “no binding” each time.

These data come from patent US20220041738A1.
